Publication PMC12007717
No constants are given. Whether binding was seen depends on the method and setting. In cells and extracts the contact can be indirect. Some results given as binding are weak or reduced against the parent protein; the word gives no strength. For part of these data: Where a sequence is shown, tags or fusion partners need not be part of it. Blank lines part the entries; values can stand above or below the molecule they belong to.

By UniProt entry, the sequences of proteins in these tests, tags left out. Where a name states a change or a piece, a line headed by the entry shows the natural chain unless it says otherwise.
UniProt Q04477: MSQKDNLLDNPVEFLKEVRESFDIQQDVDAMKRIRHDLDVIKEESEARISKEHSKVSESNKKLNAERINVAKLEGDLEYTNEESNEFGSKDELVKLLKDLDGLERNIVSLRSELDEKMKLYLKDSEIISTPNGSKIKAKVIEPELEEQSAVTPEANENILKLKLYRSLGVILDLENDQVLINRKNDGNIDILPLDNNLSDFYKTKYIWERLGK
UniProt P40460: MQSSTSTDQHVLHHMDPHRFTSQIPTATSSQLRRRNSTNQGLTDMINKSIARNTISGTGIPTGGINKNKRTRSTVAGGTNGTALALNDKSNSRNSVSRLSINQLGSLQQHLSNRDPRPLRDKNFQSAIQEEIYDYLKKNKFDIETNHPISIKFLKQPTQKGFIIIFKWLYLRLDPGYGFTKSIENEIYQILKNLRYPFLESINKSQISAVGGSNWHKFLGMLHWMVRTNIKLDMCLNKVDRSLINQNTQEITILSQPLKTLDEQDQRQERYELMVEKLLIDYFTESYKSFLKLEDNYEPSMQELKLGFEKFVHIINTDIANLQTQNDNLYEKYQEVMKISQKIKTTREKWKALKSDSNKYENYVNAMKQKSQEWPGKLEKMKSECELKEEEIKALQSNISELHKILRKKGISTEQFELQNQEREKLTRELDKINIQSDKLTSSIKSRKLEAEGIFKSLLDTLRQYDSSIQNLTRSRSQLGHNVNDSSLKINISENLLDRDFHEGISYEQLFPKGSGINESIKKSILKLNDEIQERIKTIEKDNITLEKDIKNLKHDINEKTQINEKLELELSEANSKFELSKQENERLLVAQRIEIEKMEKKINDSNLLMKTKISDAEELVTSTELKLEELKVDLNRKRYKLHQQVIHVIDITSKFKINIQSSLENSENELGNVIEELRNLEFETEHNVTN

How the values were obtained:
[1] = target: Spc24-6His-3FLAG (S. cerevisiae) (UniProt Q04477); test: co-IP; one-step anti-Flag immunoprecipitation of Spc24-His-Flag from yeast lysate, Buffer H with 250 mM KCl throughout (Figs 5A and 5B), 4 °C, 3 hours; immunoblot; cells arrested in metaphase (cdc20-AID) or anaphase (cdc15-2) at 37 °C
[2] = target: T1, Dsn1-6His-3FLAG (S. cerevisiae) (UniProt P40568); test: co-IP; one-step anti-Flag (M3DK antibody on Protein G Dynabeads) immunoprecipitation of the 3Flag-tagged bait from yeast lysate, Buffer H with 150 mM KCl, 4 °C, 3 hours; co-purifying proteins by immunoblot; cells asynchronous or arrested (cdc20-AID, cdc15-2, ndc10-1, nocodazole, kar3-AID)
T1 sequence: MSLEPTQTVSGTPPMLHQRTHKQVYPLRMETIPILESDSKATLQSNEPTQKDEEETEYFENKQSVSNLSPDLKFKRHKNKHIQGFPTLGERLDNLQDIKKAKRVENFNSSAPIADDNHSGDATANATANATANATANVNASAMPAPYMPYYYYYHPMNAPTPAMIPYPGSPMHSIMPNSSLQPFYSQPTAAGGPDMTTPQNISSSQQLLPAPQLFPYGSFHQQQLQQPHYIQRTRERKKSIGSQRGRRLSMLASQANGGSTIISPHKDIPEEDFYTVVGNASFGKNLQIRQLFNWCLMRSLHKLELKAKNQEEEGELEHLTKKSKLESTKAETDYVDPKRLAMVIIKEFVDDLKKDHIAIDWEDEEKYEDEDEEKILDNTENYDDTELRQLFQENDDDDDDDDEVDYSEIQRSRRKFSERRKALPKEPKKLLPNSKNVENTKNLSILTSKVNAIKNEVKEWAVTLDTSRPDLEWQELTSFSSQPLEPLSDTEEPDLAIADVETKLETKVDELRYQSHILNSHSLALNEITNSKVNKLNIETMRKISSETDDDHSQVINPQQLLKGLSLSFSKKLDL

[3] = target: Spc24-6His-3FLAG (S. cerevisiae) (UniProt Q04477); test: as above
[4] = target: Ndc80-3FLAG (S. cerevisiae) (UniProt P40460); test: as above
[5] = target: Ndc80 (wild type) (S. cerevisiae) (UniProt P40460); test: co-IP; one-step anti-Flag immunoprecipitation of Spc24-His-Flag from yeast lysate, Buffer H with 250 mM KCl throughout (Figs 5A and 5B), 4 °C, 3 hours; immunoblot; cells arrested in metaphase (cdc20-AID) or anaphase (cdc15-2) at 37 °C
[6] = target: Ndc80-T248A-T252A (S. cerevisiae) (UniProt P40460); test: as above
[7] = target: Ndc80-T248D-T252D (S. cerevisiae) (UniProt P40460); test: as above
[8] = target: Spc24-6His-3FLAG (S. cerevisiae) (UniProt Q04477); test: as above; remark: listed apart in the source
[9] = target: Ndc80 (wild type) (S. cerevisiae) (UniProt P40460); test: co-IP; one-step anti-Flag (M3DK antibody on Protein G Dynabeads) immunoprecipitation of the 3Flag-tagged bait from yeast lysate, Buffer H with 150 mM KCl, 4 °C, 3 hours; co-purifying proteins by immunoblot; cells asynchronous or arrested (cdc20-AID, cdc15-2, ndc10-1, nocodazole, kar3-AID)
[10] = target: Ndc80-T248D-T252D (S. cerevisiae) (UniProt P40460); test: as above
[11] = target: Spc24-6His-3FLAG (S. cerevisiae) (UniProt Q04477); test: as above; remark: listed apart in the source

- binding [1]: binds
- binding [2]: binds
- binding [3]: binds
Molecule: Ndc80 (wild type) (from UniProt P40460 1-691)

- binding [1]: binds
- binding [3]: binds
Molecule: Ndc80-T248A-T252A (from UniProt P40460 1-691)

- binding [1]: binds
- binding [3]: binds
Molecule: Ndc80-T248D-T252D (from UniProt P40460 1-691)

- binding [4]: binds
Molecule: Spc24 (from UniProt Q04477 1-213)

- binding [5]: binds
- binding [6]: binds
- binding [7]: binds
- binding [8]: binds
- binding [9]: binds
- binding [10]: binds
- binding [11]: binds
B1: Ask1 (protein, UniProt P35734 1-292)
chain: MDSASKEETLEKLDQEITVNLQKIDSNLSFCFHKITQDIIPHVATYSEICERIMDSTEWLGTMFQETGLVNLQANAAAPVGNAPVKSLVSNNVGIFPTSAEEASRQSQTDNGPNEADSAVHVNRDVHSMFNNDSIDDFHTANITSTGQILKLPDSSDEDTGSEAVPSREQTDLTGEGHGGADDEQDESTIQRQSRKRKISLLLQQQYGSSSSMVPSPIVPNKMRKQLAHEEHINNDGDNDDENSNNIESSPLKQGHHHPKGQADDNNEGPDEEESTKEVPKPGTIIHFSTNR
